We go through 40 molecules from PubChem BioAssay AID493014 (National Center for Advancing Translational Sciences (NCATS), 2011).

The structures appear in SMILES notation. Some of the results follow. The main result of the screen is listed elsewhere. These columns were measured beside it and carry no call. The list favours compounds with an active or inconclusive main result. Potencies come from curve fits of mixed quality, noted in brackets.

By AC50 is commonly meant the concentration at which the activity in the assay is half-maximal.

The assay can be described thus: qHTS Assay to Find Inhibitors of Chronic Active B-Cell Receptor Signaling. Conditions: ABC-DLBCL IkBa-CBG/CBR reporter, luminescence ratio (green luciferase fused to IkBa over red control in TMD8 lymphoma cells), 4 h. The gist of the method:
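Concentration-response series (up to 46 uM) were applied to TMD8 dual-reporter cells for 4 h at 37C with doxycycline. Green/red ratio, after filter-overlap correction, defined %Activity; red signal alone was normalised to basal cells and zero luminescence.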

The mark [1] stands for this setting: measured here: CBR red luminescence, cell number.
[2] abbreviates: measured here: IkBa-CBG green luminescence.

Take `NC(N)=NC(=O)c1nc(Cl)c(N)nc1N`: under setting [1], the half-maximal activity concentration (AC50) was 12.6 µM [falling, single point].

Regarding `C[C@H]1C[C@@H](C)C(=O)[C@@H]([C@H](O)CC2CC(=O)NC(=O)C2)C1`, the AC50 under setting [1] was 0.251 µM [falling, full curve].

`O=[N+]([O-])c1ccccc1-c1cc(-c2ccccc2)cc(-c2ccccc2)[n+]1Cc1ccccc1Cl`: under setting [1], the concentration at half-maximal activity (AC50) was 20.6 µM [falling, single point].

For `O=[N+]([O-])c1ccc(N2CCNCC2)c2ncccc12`, the half-maximal activity concentration (AC50) under setting [1] is 14.6 µM [rising, single point].

On to `COC(=O)C1=C(c2ccc(F)cc2OCc2ccccc2)C[C@@H]2CC[C@H]1N2C(=O)NCc1ccc(Cl)cc1`, for which the concentration at half-maximal activity (AC50) under setting [1] is 14.6 µM [falling, partial curve].

With `Oc1ccc(-[n+]2c(-c3ccccc3)cc(-c3ccccc3)cc2-c2ccccc2)cc1`, under setting [1], the half-maximal activity concentration (AC50) is 23.1 µM [falling, single point].

Regarding `Nc1ccc(S(=O)(=O)N2CCCCC2c2cccnc2)cc1` (stereo unspecified), under setting [1], the half-maximal activity concentration (AC50) was 2.91 µM [falling, partial curve, poor fit].

For `O=C(Nc1ccc2c(c1)OCCO2)c1cccn(Cc2cccc(F)c2)c1=O`, under setting [1], the AC50 is 10 µM [falling, partial curve, poor fit].

Turning to `Cc1nc(-c2noc(-c3ccc(Cl)cc3)n2)c(C(F)(F)F)o1`, under setting [1], the AC50 is 10 µM [rising, partial curve, poor fit].

Take `O=C(c1cccn2c(=O)c3cc(Br)ccc3nc12)N1CCC2(CC1)OCCO2`: under setting [1], the concentration at half-maximal activity (AC50) was 23.1 µM [falling, single point].

As to `COC(=O)C1=C(c2ccc(-c3ccccc3)c(F)c2)C[C@@H]2CC[C@H]1N2C(=O)NCc1ccc(F)cc1`, the half-maximal activity concentration (AC50) under setting [1] was 18.4 µM [falling, partial curve, poor fit].

Regarding `CCOc1cc(/C=C2\CN(CC)C/C(=C\c3ccc(O)c(OCC)c3)C2=O)ccc1O`, under setting [1], the AC50 is 10 µM [falling, partial curve, poor fit].

With `C/C(=N\N1CCCCCC1)c1c(O)n(C)c(=O)n(C)c1=O`, the AC50 under setting [1] is 6.31 µM [rising, single point].

For `Cn1c(O)c(C(=Nc2ccc(F)cc2)c2ccccc2)c(=O)n(C)c1=O`, under setting [1], the half-maximal activity concentration (AC50) is 2.24 µM [falling, partial curve, poor fit].

As to `O=P(Nc1cccc(Cl)c1)(Oc1ccccc1)Oc1ccccc1`, the AC50 under setting [1] was 22.4 µM [falling, single point].

Regarding `Nc1ccccc1C(=O)OCC(=O)N1CCc2ccccc21`, under setting [1], the half-maximal activity concentration (AC50) is 29.1 µM [falling, single point].

For the molecule `O=C1/C(=C/c2ccncc2)N2CCC1CC2`, the AC50 under setting [1] was 25.1 µM [falling, single point].

For the molecule `CCOC(=O)N1CCN(C(=O)c2ccc3c(c2)N(C)C(=O)/C(=C\c2ccc(OCC)c(OC)c2)S3)CC1`, the AC50 under setting [1] is 35.5 µM [falling, single point].

`O=C(O)C1C2CCC(O2)C1C(=O)NC1CCCCC1` (stereo unspecified): under setting [1], the AC50 was 20.6 µM [rising, partial curve, poor fit].

As for `COc1ccc(-c2csc(N)n2)cc1F`, the AC50 under setting [1] was 11.2 µM [rising, partial curve, poor fit].

On to `O=C(/C=C\c1ccco1)NC(=S)Nc1ccccc1O`, for which, under setting [1], the concentration at half-maximal activity (AC50) is 10 µM [falling, partial curve, poor fit].

As to `Cc1ccc(C)c(/C=N/Nc2ccccn2)c1`, under setting [1], the AC50 was 6.31 µM [rising, single point].

On to `c1ccc2sc(C3CCCNC3)nc2c1` (stereo unspecified), for which the AC50 under setting [2] was 3.66 µM [rising, partial curve, poor fit].

With `COc1cccc(-c2nc3ccc(N4CCN(C)CC4)cc3[nH]2)c1`, the AC50 is, setting by setting: under setting [1], 5.01 µM [falling, partial curve, poor fit]; under setting [2], 2.24 µM [rising, partial curve, poor fit].

`CCc1ccc(-c2cc(C)no2)cc1S(=O)(=O)N1CCOc2ccc(C)cc21`: the AC50 under setting [1] is 12.6 µM [falling, partial curve].

Take `NC(=O)Nc1ccc(C(=O)OCC(=O)Nc2ccc(Cl)cc2C(=O)c2ccccc2)cc1`: the half-maximal activity concentration (AC50) under setting [1] was 29.1 µM [falling, single point].

In the case of `O=C(Cn1c(=O)oc2ccccc21)Nc1ccc(Cl)cc1`, under setting [1], the half-maximal activity concentration (AC50) was 3.16 µM [falling, partial curve, poor fit].

In the case of `COc1ccc(C2C(C#N)=C(N)Oc3c2c(=O)oc2ccccc32)cc1Cn1cc([N+](=O)[O-])cn1` (stereo unspecified), the concentration at half-maximal activity (AC50) under setting [1] was 3.55 µM [falling, partial curve, poor fit].

For the molecule `c1ccc(-c2cc(-c3ccccc3)[n+](-c3ccccc3)c(-c3ccccc3)c2)cc1`, the AC50 under setting [1] is 35.5 µM [falling, partial curve, poor fit].

Turning to `O=C(N/N=C/c1c(O)n(CCC2=CCCCC2)c(=O)[nH]c1=O)c1ccccc1`, the AC50 under setting [1] was 4.11 µM [falling, partial curve].

Turning to `Cc1c(C(=O)N2CCC3(CC2)OCCO3)oc2ccc(S(=O)(=O)N3CCCCC3)cc12`, the AC50 under setting [1] was 7.31 µM [rising, partial curve, poor fit].

Turning to `O=c1[nH]c(=O)n(Cc2ccco2)c(O)c1C=NCc1ccc2c(c1)OCO2`, under setting [1], the AC50 is 0.794 µM [rising, full curve].

Turning to `NS(=O)(=O)c1ccc(N2CCNCC2)cc1`, the half-maximal activity concentration (AC50) under setting [1] is 35.5 µM [rising, single point].

`O=C1NC(c2cccnc2)Nc2sc3c(c21)CCCC3` (stereo unspecified): the concentration at half-maximal activity (AC50) under setting [1] is 6.51 µM [rising, single point].

As to `CCCC(=O)NC(Oc1ccc(OC)cc1)C(Cl)(Cl)Cl` (stereo unspecified), the half-maximal activity concentration (AC50) under setting [1] was 31.6 µM [rising, single point].

For the molecule `CCCCCCn1c(O)c(C=Nc2c(C)n(C)n(-c3ccccc3)c2=O)c(=O)[nH]c1=O`, the half-maximal activity concentration (AC50) under setting [1] is 20.6 µM [rising, partial curve, poor fit].

On to `C=CCn1c(O)c(C(CC)=NCc2ccc3c(c2)OCO3)c(=O)[nH]c1=O`, for which the AC50 under setting [1] is 15.8 µM [falling, partial curve, poor fit].

Consider `COc1ccc(-c2cc(C(=O)N(C)Cc3ccccc3)no2)cc1OC`, for which the concentration at half-maximal activity (AC50) under setting [1] was 12.6 µM [falling, partial curve].

As for `CC(C)=CCc1c(O)cc2c(c1O)C(=O)CC(c1ccc(O)cc1)O2` (stereo unspecified), the AC50 under setting [1] was 35.5 µM [falling, single point].

In the case of `COc1ccccc1/C=N/N=C(/N)N[N+](=O)[O-]`, the half-maximal activity concentration (AC50) under setting [1] was 18.4 µM [falling, single point].
